Laboratory results taken from patent publication US10266537B2, “3-acetylenyl-pyrazole-pyrimidine derivative, and preparation method therefor and uses thereof” (Si Chuan University, priority 2015, dated 2019).

By UniProt entry, the sequences of proteins in these tests, tags left out. Where a name states a change or a piece, a line headed by the entry shows the natural chain unless it says otherwise. Residues count along the entry.
UniProt P41240: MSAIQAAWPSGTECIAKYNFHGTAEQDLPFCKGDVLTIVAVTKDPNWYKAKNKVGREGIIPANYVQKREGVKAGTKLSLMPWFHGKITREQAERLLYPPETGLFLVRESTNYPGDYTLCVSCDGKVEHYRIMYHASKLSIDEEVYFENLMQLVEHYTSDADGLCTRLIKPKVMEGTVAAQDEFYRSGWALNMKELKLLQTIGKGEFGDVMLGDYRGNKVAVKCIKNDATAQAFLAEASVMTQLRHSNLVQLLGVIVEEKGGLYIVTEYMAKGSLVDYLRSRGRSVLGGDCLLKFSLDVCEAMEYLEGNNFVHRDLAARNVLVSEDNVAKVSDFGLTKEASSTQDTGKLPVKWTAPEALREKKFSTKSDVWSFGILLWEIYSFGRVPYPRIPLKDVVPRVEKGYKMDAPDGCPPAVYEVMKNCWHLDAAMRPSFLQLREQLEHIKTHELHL
UniProt P08631: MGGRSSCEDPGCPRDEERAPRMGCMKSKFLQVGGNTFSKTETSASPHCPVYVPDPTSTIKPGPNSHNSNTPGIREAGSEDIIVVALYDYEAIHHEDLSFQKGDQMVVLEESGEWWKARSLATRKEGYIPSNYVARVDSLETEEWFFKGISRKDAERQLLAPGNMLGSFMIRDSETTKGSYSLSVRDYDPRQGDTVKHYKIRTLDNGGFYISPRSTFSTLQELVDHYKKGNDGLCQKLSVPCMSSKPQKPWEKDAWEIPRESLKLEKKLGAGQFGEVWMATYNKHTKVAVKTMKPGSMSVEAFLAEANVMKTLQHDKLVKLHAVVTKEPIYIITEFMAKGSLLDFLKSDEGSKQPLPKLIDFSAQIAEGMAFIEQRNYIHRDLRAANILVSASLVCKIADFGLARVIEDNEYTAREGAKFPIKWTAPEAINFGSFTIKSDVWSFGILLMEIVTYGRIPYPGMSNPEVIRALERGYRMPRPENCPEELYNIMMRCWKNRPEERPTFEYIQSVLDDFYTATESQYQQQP
UniProt P42681: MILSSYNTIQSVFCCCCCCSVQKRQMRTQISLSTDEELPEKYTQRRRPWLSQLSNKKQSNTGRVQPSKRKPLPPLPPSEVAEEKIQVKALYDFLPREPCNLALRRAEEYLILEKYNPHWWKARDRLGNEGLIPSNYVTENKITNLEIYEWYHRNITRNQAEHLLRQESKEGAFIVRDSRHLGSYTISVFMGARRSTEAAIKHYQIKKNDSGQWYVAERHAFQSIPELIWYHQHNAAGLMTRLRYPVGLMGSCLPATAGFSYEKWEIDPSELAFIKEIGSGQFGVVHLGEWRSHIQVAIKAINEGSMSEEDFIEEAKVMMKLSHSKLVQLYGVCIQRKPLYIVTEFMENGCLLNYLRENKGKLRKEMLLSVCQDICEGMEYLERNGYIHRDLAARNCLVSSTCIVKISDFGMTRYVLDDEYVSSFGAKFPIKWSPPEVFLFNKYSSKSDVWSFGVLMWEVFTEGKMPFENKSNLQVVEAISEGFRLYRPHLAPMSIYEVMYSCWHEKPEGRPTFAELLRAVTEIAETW
UniProt P07333, 20-972: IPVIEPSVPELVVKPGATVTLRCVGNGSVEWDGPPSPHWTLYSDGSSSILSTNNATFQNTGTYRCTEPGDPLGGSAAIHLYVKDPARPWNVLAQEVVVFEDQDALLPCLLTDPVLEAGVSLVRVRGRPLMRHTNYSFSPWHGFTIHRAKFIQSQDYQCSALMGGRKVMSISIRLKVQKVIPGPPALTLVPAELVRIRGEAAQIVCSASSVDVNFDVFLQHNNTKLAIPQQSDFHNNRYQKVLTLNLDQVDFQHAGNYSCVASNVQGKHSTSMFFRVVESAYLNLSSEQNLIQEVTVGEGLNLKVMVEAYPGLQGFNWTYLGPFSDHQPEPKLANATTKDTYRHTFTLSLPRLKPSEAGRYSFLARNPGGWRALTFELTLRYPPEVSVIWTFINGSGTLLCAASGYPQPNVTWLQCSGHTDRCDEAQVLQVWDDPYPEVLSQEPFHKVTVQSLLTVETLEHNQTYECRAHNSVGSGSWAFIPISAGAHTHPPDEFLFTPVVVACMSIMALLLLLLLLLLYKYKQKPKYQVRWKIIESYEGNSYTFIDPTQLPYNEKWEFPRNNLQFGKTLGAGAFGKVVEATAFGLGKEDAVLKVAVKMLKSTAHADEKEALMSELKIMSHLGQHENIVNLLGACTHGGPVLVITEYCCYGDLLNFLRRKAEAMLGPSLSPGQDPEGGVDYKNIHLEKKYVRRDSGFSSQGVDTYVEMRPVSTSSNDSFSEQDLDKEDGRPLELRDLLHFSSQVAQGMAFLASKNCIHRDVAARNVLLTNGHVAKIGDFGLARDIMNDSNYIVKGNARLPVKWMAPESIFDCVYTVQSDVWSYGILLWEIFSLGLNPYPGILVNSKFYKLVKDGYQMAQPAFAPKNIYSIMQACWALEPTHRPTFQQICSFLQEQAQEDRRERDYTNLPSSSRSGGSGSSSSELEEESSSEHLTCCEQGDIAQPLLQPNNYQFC
UniProt Q15835: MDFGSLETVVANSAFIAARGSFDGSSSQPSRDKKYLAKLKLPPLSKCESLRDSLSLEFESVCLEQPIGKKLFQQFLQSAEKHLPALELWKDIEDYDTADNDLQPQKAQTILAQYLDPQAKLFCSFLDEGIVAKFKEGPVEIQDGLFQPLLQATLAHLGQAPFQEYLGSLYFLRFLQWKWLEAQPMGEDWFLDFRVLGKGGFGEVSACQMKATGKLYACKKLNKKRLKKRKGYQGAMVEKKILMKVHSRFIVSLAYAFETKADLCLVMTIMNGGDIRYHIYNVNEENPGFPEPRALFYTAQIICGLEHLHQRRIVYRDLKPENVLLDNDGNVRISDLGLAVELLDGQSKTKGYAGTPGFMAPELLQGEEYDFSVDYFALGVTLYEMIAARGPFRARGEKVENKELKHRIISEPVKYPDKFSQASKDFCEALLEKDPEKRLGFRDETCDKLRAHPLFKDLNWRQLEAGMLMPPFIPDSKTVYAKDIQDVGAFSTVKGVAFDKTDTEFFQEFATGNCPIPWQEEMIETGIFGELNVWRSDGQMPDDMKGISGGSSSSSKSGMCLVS
UniProt P51617, whole entry: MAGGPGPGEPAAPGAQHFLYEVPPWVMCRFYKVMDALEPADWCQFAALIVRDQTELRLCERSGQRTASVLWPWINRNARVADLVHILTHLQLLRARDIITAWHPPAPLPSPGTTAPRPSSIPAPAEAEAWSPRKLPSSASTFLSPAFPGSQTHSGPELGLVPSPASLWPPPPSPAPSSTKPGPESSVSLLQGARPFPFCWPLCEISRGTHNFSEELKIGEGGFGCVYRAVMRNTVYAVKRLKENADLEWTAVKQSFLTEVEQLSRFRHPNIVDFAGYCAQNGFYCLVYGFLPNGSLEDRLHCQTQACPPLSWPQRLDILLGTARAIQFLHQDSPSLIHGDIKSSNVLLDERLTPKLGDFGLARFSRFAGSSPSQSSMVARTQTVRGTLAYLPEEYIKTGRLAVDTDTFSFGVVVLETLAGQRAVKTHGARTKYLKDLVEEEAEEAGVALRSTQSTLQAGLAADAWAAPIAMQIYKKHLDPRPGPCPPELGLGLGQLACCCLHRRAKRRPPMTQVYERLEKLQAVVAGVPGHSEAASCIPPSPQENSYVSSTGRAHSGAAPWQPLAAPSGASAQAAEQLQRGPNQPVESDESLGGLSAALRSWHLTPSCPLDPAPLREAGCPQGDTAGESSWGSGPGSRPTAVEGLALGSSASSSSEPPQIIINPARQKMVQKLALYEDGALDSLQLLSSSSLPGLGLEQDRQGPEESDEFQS
UniProt P53779: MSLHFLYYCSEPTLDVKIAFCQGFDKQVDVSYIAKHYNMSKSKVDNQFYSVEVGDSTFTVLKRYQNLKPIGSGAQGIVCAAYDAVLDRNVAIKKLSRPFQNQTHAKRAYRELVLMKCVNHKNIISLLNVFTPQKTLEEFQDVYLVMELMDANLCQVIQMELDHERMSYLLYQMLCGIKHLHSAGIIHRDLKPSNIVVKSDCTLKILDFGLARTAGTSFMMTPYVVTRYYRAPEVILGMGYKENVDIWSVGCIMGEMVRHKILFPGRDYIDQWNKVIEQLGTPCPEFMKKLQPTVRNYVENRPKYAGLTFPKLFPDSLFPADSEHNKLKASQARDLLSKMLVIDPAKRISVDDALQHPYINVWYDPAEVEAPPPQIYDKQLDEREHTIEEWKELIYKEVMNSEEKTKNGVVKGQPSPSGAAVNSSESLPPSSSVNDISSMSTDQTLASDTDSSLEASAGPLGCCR
UniProt O94804: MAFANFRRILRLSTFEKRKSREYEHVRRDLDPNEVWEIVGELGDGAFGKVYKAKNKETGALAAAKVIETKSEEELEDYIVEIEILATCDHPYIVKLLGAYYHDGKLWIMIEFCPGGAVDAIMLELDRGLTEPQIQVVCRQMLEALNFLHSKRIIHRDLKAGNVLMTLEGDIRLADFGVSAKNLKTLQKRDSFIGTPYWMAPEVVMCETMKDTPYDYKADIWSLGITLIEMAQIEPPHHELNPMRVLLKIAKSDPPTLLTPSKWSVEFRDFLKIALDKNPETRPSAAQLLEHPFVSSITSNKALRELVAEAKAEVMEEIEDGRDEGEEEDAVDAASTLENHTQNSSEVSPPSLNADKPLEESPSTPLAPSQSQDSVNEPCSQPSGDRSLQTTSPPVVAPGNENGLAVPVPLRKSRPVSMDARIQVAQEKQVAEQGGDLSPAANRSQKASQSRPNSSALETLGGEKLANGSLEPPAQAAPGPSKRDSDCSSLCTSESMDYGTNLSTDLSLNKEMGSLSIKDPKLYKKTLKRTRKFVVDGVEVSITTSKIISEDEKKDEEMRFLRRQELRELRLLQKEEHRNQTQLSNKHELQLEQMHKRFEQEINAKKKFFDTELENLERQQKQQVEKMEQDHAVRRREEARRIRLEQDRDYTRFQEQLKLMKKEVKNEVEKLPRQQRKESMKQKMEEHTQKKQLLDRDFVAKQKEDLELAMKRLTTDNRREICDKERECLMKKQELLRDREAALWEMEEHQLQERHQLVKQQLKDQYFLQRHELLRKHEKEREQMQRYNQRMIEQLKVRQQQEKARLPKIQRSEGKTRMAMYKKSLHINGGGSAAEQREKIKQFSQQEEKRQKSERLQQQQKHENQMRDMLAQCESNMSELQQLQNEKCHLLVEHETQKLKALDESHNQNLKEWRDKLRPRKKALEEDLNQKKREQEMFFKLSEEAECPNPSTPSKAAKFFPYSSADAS
UniProt P23443: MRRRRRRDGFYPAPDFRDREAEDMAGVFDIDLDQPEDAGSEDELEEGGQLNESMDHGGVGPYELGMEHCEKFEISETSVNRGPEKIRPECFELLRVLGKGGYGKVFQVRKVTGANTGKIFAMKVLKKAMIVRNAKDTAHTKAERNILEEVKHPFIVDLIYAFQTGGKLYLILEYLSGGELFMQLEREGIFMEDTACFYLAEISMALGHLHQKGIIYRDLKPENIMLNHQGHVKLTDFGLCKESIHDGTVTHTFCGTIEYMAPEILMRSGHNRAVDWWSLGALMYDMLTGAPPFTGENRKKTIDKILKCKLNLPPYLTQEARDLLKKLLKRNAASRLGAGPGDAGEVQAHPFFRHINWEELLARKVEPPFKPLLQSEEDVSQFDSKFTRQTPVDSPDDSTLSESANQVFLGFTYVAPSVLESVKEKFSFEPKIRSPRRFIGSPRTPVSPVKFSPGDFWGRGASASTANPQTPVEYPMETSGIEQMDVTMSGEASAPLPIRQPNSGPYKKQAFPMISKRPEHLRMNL
UniProt Q9NYY3: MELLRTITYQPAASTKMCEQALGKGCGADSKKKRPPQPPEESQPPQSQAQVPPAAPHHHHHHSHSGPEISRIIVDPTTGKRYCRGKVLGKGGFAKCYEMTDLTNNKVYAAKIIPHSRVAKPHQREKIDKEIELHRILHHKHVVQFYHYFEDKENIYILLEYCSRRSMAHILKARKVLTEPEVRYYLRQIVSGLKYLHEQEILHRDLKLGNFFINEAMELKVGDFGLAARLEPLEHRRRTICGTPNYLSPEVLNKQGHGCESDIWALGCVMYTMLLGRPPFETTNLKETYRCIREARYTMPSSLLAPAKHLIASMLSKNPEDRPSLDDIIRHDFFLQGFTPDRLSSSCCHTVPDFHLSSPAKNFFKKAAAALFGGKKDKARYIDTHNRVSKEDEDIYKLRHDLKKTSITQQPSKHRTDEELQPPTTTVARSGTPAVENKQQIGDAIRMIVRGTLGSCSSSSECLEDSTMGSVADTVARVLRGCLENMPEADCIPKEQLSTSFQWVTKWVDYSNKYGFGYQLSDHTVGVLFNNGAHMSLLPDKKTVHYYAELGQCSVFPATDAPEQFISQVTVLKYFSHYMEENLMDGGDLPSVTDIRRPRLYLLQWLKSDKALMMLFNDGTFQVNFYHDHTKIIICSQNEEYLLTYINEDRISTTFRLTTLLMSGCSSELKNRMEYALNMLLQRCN

Columns and labels:
[1] = target: KDR (Homo sapiens (Human), UniProt P35968); assay: Kinase inhibition assay (KinaseProfiler, 33P-ATP); assay type: biochemical; details: KDR(h), read-out: The percentage of the remaining active protein
[2] = target: DDR1 (Homo sapiens (Human), UniProt Q08345); assay: Kinase inhibition assay (KinaseProfiler, 33P-ATP); assay type: biochemical; details: DDR1(h), read-out: The percentage of the remaining active protein
[3] = target: TAK1 (Homo sapiens (Human), UniProt O43318); assay: Kinase inhibition assay (KinaseProfiler, 33P-ATP); assay type: biochemical; details: TAK1(h), read-out: The percentage of the remaining active protein
[4] = target: TrkA (Homo sapiens (Human), UniProt P04629); assay: Kinase inhibition assay (KinaseProfiler, 33P-ATP); assay type: biochemical; details: TrkA(h), read-out: The percentage of the remaining active protein
[5] = target: JAK2 (Homo sapiens (Human), UniProt O60674); assay: Kinase inhibition assay (KinaseProfiler, 33P-ATP); assay type: biochemical; details: JAK2(h), read-out: The percentage of the remaining active protein
[6] = target: BRK (Homo sapiens (Human), UniProt Q13882); assay: Kinase inhibition assay (KinaseProfiler, 33P-ATP); assay type: biochemical; details: BRK(h), read-out: The percentage of the remaining active protein
[7] = target: CSK (Homo sapiens (Human), UniProt P41240); assay: Kinase inhibition assay (KinaseProfiler, 33P-ATP); assay type: biochemical; details: CSK(h), read-out: The percentage of the remaining active protein
[8] = target: Hck (Homo sapiens (Human), UniProt P08631); assay: Kinase inhibition assay (KinaseProfiler, 33P-ATP); assay type: biochemical; details: Hck(h), read-out: The percentage of the remaining active protein
[9] = target: Lck (Homo sapiens (Human), UniProt P06239); assay: Kinase inhibition assay (KinaseProfiler, 33P-ATP); assay type: biochemical; details: Lck(h), read-out: The percentage of the remaining active protein
[10] = target: Lyn (Homo sapiens (Human), UniProt P07948); assay: Kinase inhibition assay (KinaseProfiler, 33P-ATP); assay type: biochemical; details: Lyn(h), read-out: The percentage of the remaining active protein
[11] = target: Txk (Homo sapiens (Human), UniProt P42681); assay: Kinase inhibition assay (KinaseProfiler, 33P-ATP); assay type: biochemical; details: Txk(h), read-out: The percentage of the remaining active protein
[12] = target: ARK5(h) (Homo sapiens (Human), UniProt O60285); assay: Kinase inhibition assay (KinaseProfiler, 33P-ATP); assay type: biochemical; details: read-out: The percentage of the remaining active protein
[13] = target: EphA1(h) (Homo sapiens (Human), UniProt P21709); assay: Kinase inhibition assay (KinaseProfiler, 33P-ATP); assay type: biochemical; details: read-out: The percentage of the remaining active protein
[14] = target: Fms(h) (Homo sapiens (Human), UniProt P07333); assay: Kinase inhibition assay (KinaseProfiler, 33P-ATP); assay type: biochemical; details: read-out: The percentage of the remaining active protein
[15] = target: JAK3(h) (Homo sapiens (Human), UniProt P52333); assay: Kinase inhibition assay (KinaseProfiler, 33P-ATP); assay type: biochemical; details: read-out: The percentage of the remaining active protein
[16] = target: JNK1α1(h) (Homo sapiens (Human), UniProt P45983); assay: Kinase inhibition assay (KinaseProfiler, 33P-ATP); assay type: biochemical; details: read-out: The percentage of the remaining active protein
[17] = target: PKA(h) (Homo sapiens (Human), UniProt P17612); assay: Kinase inhibition assay (KinaseProfiler, 33P-ATP); assay type: biochemical; details: read-out: The percentage of the remaining active protein
[18] = target: ACK1 (Homo sapiens (Human), UniProt Q07912); assay: Kinase inhibition assay (KinaseProfiler, 33P-ATP); assay type: biochemical; details: ACK1(h), read-out: The percentage of the remaining active protein
[19] = target: EphB1 (Homo sapiens (Human), UniProt P54762); assay: Kinase inhibition assay (KinaseProfiler, 33P-ATP); assay type: biochemical; details: EphB1(h), read-out: The percentage of the remaining active protein
[20] = target: Fgr (Homo sapiens (Human), UniProt P09769); assay: Kinase inhibition assay (KinaseProfiler, 33P-ATP); assay type: biochemical; details: Fgr(h), read-out: The percentage of the remaining active protein
[21] = target: JAK1 (Homo sapiens (Human), UniProt P23458); assay: Kinase inhibition assay (KinaseProfiler, 33P-ATP); assay type: biochemical; details: JAK1(h), read-out: The percentage of the remaining active protein
[22] = target: CaMKK2(h) (Homo sapiens (Human), UniProt Q96RR4); assay: Kinase inhibition assay (KinaseProfiler, 33P-ATP); assay type: biochemical; details: read-out: The percentage of the remaining active protein
[23] = target: CLK1(h) (Homo sapiens (Human), UniProt P49759); assay: Kinase inhibition assay (KinaseProfiler, 33P-ATP); assay type: biochemical; details: read-out: The percentage of the remaining active protein
[24] = target: DAPK1(h) (Homo sapiens (Human), UniProt P53355); assay: Kinase inhibition assay (KinaseProfiler, 33P-ATP); assay type: biochemical; details: read-out: The percentage of the remaining active protein
[25] = target: DCAMKL2(h) (Homo sapiens (Human), UniProt Q8N568); assay: Kinase inhibition assay (KinaseProfiler, 33P-ATP); assay type: biochemical; details: read-out: The percentage of the remaining active protein
[26] = target: DMPK(h) (Homo sapiens (Human), UniProt Q09013); assay: Kinase inhibition assay (KinaseProfiler, 33P-ATP); assay type: biochemical; details: read-out: The percentage of the remaining active protein
[27] = target: GCK(h) (Homo sapiens (Human), UniProt Q12851); assay: Kinase inhibition assay (KinaseProfiler, 33P-ATP); assay type: biochemical; details: read-out: The percentage of the remaining active protein
[28] = target: GRK1(h) (Homo sapiens (Human), UniProt Q15835); assay: Kinase inhibition assay (KinaseProfiler, 33P-ATP); assay type: biochemical; details: read-out: The percentage of the remaining active protein
[29] = target: IRR(h) (Homo sapiens (Human), UniProt P14616); assay: Kinase inhibition assay (KinaseProfiler, 33P-ATP); assay type: biochemical; details: read-out: The percentage of the remaining active protein
[30] = target: IRAK1(h) (Homo sapiens (Human), UniProt P51617); assay: Kinase inhibition assay (KinaseProfiler, 33P-ATP); assay type: biochemical; details: read-out: The percentage of the remaining active protein
[31] = target: JNK2α2(h) (Homo sapiens (Human), UniProt P45984); assay: Kinase inhibition assay (KinaseProfiler, 33P-ATP); assay type: biochemical; details: read-out: The percentage of the remaining active protein
[32] = target: JNK3(h) (Homo sapiens (Human), UniProt P53779); assay: Kinase inhibition assay (KinaseProfiler, 33P-ATP); assay type: biochemical; details: read-out: The percentage of the remaining active protein
[33] = target: LOK(h) (Homo sapiens (Human), UniProt O94804); assay: Kinase inhibition assay (KinaseProfiler, 33P-ATP); assay type: biochemical; details: read-out: The percentage of the remaining active protein
[34] = target: LRRK2(h) (Homo sapiens (Human), UniProt Q5S007); assay: Kinase inhibition assay (KinaseProfiler, 33P-ATP); assay type: biochemical; details: read-out: The percentage of the remaining active protein
[35] = target: MELK(h) (Homo sapiens (Human), UniProt Q14680); assay: Kinase inhibition assay (KinaseProfiler, 33P-ATP); assay type: biochemical; details: read-out: The percentage of the remaining active protein
[36] = system: MLCK(h); assay: Kinase inhibition assay (KinaseProfiler, 33P-ATP); assay type: biochemical, human; details: 10 μM
[37] = target: MLK1(h) (Homo sapiens (Human), UniProt P80192); assay: Kinase inhibition assay (KinaseProfiler, 33P-ATP); assay type: biochemical; details: read-out: The percentage of the remaining active protein
[38] = target: Mnk2(h) (Homo sapiens (Human), UniProt Q9HBH9); assay: Kinase inhibition assay (KinaseProfiler, 33P-ATP); assay type: biochemical; details: read-out: The percentage of the remaining active protein
[39] = target: MRCKα(h) (Homo sapiens (Human), UniProt Q5VT25); assay: Kinase inhibition assay (KinaseProfiler, 33P-ATP); assay type: biochemical; details: read-out: The percentage of the remaining active protein
[40] = target: MSSK1(h) (Homo sapiens (Human), UniProt Q9UPE1); assay: Kinase inhibition assay (KinaseProfiler, 33P-ATP); assay type: biochemical; details: read-out: The percentage of the remaining active protein
[41] = target: NEK11(h) (Homo sapiens (Human), UniProt Q8NG66); assay: Kinase inhibition assay (KinaseProfiler, 33P-ATP); assay type: biochemical; details: read-out: The percentage of the remaining active protein
[42] = target: NLK(h) (Homo sapiens (Human), UniProt Q9UBE8); assay: Kinase inhibition assay (KinaseProfiler, 33P-ATP); assay type: biochemical; details: read-out: The percentage of the remaining active protein
[43] = target: p70S6K(h) (Homo sapiens (Human), UniProt P23443); assay: Kinase inhibition assay (KinaseProfiler, 33P-ATP); assay type: biochemical; details: read-out: The percentage of the remaining active protein
[44] = target: PEK(h) (Homo sapiens (Human), UniProt Q9NZJ5); assay: Kinase inhibition assay (KinaseProfiler, 33P-ATP); assay type: biochemical; details: read-out: The percentage of the remaining active protein
[45] = target: PhKγ2(h) (Homo sapiens (Human), UniProt P15735); assay: Kinase inhibition assay (KinaseProfiler, 33P-ATP); assay type: biochemical; details: read-out: The percentage of the remaining active protein
[46] = target: PKD2(h) (Homo sapiens (Human), UniProt Q9BZL6); assay: Kinase inhibition assay (KinaseProfiler, 33P-ATP); assay type: biochemical; details: read-out: The percentage of the remaining active protein
[47] = target: PRAK(h) (Homo sapiens (Human), UniProt Q8IW41); assay: Kinase inhibition assay (KinaseProfiler, 33P-ATP); assay type: biochemical; details: read-out: The percentage of the remaining active protein
[48] = target: PRK2(h) (Homo sapiens (Human), UniProt Q16513); assay: Kinase inhibition assay (KinaseProfiler, 33P-ATP); assay type: biochemical; details: read-out: The percentage of the remaining active protein
[49] = target: Rsk1(h) (Homo sapiens (Human), UniProt Q15418); assay: Kinase inhibition assay (KinaseProfiler, 33P-ATP); assay type: biochemical; details: read-out: The percentage of the remaining active protein
[50] = target: SIK(h) (Homo sapiens (Human), UniProt P57059); assay: Kinase inhibition assay (KinaseProfiler, 33P-ATP); assay type: biochemical; details: read-out: The percentage of the remaining active protein
[51] = target: Snk(h) (Homo sapiens (Human), UniProt Q9NYY3); assay: Kinase inhibition assay (KinaseProfiler, 33P-ATP); assay type: biochemical; details: read-out: The percentage of the remaining active protein
[52] = target: TAO1(h) (Homo sapiens (Human), UniProt Q7L7X3); assay: Kinase inhibition assay (KinaseProfiler, 33P-ATP); assay type: biochemical; details: read-out: The percentage of the remaining active protein
[53] = target: PIP4K2a(h) (Homo sapiens (Human), UniProt P48426); assay: Kinase inhibition assay (KinaseProfiler, 33P-ATP); assay type: biochemical; details: read-out: The percentage of the remaining active protein
[54] = target: LIMK1 (Homo sapiens (Human), UniProt P53667); assay: biochemical; details: read-out: The percentage of the remaining active protein
[55] = target: MEK1(h) (Homo sapiens (Human), UniProt Q02750); assay: Kinase inhibition assay (KinaseProfiler, 33P-ATP); details: read-out: The percentage of the remaining active protein

Cc1ccc(NC(=O)c2cccc(C(F)(F)F)c2)cc1C#Cc1nn([C@H]2CC[C@H](O)CC2)c2ncnc(N)c12 [Compound 100]
remaining activity at 10 µM [1]: 5% | remaining activity at 10 µM [2]: 2% | remaining activity at 10 µM [3]: 6% | remaining activity at 10 µM [4]: 66% | remaining activity at 10 µM [5]: 7% | remaining activity at 10 µM [6]: 46% | remaining activity at 10 µM [7]: -4% | remaining activity at 10 µM [8]: -1% | remaining activity at 10 µM [9]: 0% | remaining activity at 10 µM [10]: 1% | remaining activity at 10 µM [11]: -1% | remaining activity at 10 µM [12]: 115% | remaining activity at 10 µM [13]: 0% | remaining activity at 10 µM [14]: 0% | remaining activity at 10 µM [15]: 7% | remaining activity at 10 µM [16]: 79% | remaining activity at 10 µM [17]: 49% | remaining activity at 10 µM [18]: 8% | remaining activity at 10 µM [19]: -3% | remaining activity at 10 µM [20]: 0% | remaining activity at 10 µM [21]: 0% | remaining activity at 10 µM [22]: 90% | remaining activity at 10 µM [23]: 67% | remaining activity at 10 µM [24]: 101% | remaining activity at 10 µM [25]: 120% | remaining activity at 10 µM [26]: 62% | remaining activity at 10 µM [27]: 29% | remaining activity at 10 µM [28]: 88% | remaining activity at 10 µM [29]: 85% | remaining activity at 10 µM [30]: 84% | remaining activity at 10 µM [31]: 12% | remaining activity at 10 µM [32]: 26% | remaining activity at 10 µM [33]: 5% | remaining activity at 10 µM [34]: 49% | remaining activity at 10 µM [35]: 30% | The percentage of the remaining active protein [36]: 100% | remaining activity at 10 µM [37]: 10% | remaining activity at 10 µM [38]: 84% | remaining activity at 10 µM [39]: 101% | remaining activity at 10 µM [40]: 68% | remaining activity at 10 µM [41]: 76% | remaining activity at 10 µM [42]: 63% | remaining activity at 10 µM [43]: 30% | remaining activity at 10 µM [44]: 46% | remaining activity at 10 µM [45]: 117% | remaining activity at 10 µM [46]: 115% | remaining activity at 10 µM [47]: 101% | remaining activity at 10 µM [48]: 134% | remaining activity at 10 µM [49]: 60% | remaining activity at 10 µM [50]: 17% | remaining activity at 10 µM [51]: 100% | remaining activity at 10 µM [52]: 15% | remaining activity at 10 µM [53]: 101% | remaining activity at 10 µM [54]: 20% | remaining activity at 10 µM [55]: 72%
